Measured values as given in paper PMC7305330.

Chains of the proteins cited; added tags and fusions are not shown.
UniProt P22147: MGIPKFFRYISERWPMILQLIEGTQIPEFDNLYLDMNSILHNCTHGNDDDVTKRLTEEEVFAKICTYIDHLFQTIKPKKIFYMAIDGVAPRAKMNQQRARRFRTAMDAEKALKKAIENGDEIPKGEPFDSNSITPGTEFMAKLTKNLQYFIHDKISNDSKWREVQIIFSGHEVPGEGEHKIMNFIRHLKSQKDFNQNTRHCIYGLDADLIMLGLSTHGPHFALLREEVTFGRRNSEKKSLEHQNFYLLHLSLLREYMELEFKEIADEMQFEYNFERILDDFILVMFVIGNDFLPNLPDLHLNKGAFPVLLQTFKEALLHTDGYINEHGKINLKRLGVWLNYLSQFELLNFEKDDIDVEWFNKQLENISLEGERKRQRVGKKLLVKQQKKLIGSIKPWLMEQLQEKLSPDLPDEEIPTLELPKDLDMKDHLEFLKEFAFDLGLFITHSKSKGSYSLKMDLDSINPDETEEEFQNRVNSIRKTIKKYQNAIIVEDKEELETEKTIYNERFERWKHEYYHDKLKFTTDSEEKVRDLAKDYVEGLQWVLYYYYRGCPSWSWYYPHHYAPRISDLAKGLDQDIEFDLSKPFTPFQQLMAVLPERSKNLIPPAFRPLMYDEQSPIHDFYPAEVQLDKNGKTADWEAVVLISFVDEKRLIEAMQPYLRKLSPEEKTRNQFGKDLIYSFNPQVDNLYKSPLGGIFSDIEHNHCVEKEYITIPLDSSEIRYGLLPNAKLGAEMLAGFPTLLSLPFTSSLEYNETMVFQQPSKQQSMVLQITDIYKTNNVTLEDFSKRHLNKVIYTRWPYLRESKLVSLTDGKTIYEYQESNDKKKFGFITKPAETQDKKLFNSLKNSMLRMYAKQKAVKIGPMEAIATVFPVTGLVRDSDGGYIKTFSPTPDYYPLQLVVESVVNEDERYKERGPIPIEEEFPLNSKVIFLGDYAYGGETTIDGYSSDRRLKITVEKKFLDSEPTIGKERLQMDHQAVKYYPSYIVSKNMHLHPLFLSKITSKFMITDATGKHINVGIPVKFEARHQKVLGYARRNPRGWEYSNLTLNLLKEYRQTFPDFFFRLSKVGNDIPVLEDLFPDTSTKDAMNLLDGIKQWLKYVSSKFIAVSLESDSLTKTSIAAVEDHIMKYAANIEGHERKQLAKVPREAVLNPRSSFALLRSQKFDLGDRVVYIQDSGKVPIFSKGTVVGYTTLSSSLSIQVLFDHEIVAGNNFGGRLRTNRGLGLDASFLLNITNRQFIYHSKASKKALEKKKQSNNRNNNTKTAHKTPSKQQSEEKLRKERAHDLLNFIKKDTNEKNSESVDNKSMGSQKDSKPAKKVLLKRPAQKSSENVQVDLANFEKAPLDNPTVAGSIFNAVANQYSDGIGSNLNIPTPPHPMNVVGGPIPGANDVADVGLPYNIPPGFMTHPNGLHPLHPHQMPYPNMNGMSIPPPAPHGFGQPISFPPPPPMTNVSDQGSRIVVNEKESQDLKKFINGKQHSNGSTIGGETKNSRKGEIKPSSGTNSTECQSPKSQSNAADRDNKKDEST

T1: Trf4 (S. cerevisiae (endogenous in strains derived from BY4741)) (UniProt P53632)
T1 sequence: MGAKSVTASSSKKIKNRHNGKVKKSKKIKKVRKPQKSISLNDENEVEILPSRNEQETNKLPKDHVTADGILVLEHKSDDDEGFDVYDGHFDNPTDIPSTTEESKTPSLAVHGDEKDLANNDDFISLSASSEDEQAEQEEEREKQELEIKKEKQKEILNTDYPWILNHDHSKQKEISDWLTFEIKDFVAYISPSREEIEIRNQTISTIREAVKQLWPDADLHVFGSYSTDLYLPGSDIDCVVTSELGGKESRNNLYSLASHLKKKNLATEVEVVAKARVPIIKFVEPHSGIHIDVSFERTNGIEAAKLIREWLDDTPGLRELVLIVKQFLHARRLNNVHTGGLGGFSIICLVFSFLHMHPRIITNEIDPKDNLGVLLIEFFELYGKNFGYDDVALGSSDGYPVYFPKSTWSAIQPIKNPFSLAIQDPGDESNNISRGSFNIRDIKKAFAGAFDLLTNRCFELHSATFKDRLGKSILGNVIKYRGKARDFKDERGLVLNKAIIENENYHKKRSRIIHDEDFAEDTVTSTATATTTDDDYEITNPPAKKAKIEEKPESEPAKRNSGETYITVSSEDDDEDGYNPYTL

T2: Air1 (S. cerevisiae (endogenous in strains derived from BY4741)) (UniProt P40507)
T2 sequence: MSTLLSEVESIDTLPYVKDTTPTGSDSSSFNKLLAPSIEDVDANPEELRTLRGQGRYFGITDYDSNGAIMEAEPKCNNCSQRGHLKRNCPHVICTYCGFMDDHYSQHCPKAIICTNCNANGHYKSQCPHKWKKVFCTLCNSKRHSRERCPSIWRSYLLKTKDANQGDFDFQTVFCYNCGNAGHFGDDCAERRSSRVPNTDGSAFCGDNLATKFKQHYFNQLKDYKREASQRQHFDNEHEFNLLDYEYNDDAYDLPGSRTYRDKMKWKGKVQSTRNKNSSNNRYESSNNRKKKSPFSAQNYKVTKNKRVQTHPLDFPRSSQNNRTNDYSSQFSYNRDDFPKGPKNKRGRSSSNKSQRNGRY

T3: Air2 (S. cerevisiae (endogenous in strains derived from BY4741)) (UniProt Q12476)
T3 sequence: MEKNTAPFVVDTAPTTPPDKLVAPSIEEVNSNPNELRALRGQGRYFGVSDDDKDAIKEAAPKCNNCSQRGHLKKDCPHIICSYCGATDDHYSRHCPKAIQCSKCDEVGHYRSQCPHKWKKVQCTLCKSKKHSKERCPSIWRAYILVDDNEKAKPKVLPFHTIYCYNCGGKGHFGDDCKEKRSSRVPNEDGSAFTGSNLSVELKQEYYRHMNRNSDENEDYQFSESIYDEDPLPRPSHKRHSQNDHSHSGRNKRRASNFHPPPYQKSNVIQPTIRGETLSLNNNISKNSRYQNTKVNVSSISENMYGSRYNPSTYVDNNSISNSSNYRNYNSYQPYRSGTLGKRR

T4: Trf5 (S. cerevisiae (endogenous in strains derived from BY4741)) (UniProt P48561)
T4 sequence: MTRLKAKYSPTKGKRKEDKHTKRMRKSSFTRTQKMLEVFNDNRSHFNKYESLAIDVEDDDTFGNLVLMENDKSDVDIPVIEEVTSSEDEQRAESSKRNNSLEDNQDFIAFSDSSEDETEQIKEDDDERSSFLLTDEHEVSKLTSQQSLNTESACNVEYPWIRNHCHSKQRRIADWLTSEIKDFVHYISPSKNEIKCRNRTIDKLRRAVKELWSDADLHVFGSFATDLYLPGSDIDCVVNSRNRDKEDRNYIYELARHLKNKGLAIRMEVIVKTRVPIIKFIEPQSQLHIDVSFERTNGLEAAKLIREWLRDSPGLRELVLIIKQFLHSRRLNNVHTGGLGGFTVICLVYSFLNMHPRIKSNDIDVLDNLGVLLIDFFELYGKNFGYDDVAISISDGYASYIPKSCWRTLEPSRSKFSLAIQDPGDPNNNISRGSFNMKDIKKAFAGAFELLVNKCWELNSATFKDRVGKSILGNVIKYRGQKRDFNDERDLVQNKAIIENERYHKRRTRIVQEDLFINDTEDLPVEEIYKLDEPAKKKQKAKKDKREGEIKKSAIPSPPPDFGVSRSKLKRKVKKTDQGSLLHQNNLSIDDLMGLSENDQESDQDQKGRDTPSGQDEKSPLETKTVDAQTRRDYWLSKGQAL


Key:
[1] = molecular target: T1, Trf4 (S. cerevisiae (endogenous in strains derived from BY4741)); experiment: affinity purification with mass spectrometry; purification of Trf4-HTP or Trf5-HTP from yeast extract at lower stringency (150 mM NaCl), without RNase treatment; enrichment (riBAQ ratio) against the non-tagged control, ratio <2 taken as not enriched
[2] = molecular target: T2, Air1 (S. cerevisiae (endogenous in strains derived from BY4741)); experiment: affinity purification with mass spectrometry; tandem-affinity purification of C-terminally HTP-tagged bait (Air1, Air2, Trf4 or Trf5) from yeast extract under stringent conditions (1 M NaCl); LC-MS/MS, label-free quantification (iBAQ); non-tagged strain as negative control
[3] = molecular target: T3, Air2 (S. cerevisiae (endogenous in strains derived from BY4741)); experiment: as above
[4] = molecular target: T4, Trf5 (S. cerevisiae (endogenous in strains derived from BY4741)); experiment: affinity purification with mass spectrometry; purification of Trf4-HTP or Trf5-HTP from yeast extract at lower stringency (150 mM NaCl), without RNase treatment; enrichment (riBAQ ratio) against the non-tagged control, ratio <2 taken as not enriched
[5] = molecular target: T2, Air1 (S. cerevisiae (endogenous in strains derived from BY4741)); experiment: affinity purification with mass spectrometry; tandem-affinity purification of C-terminally HTP-tagged bait (Air1, Air2, Trf4 or Trf5) from yeast extract under stringent conditions (1 M NaCl); LC-MS/MS, label-free quantification (iBAQ); non-tagged strain as negative control; remark: listed apart in the source
[6] = molecular target: T3, Air2 (S. cerevisiae (endogenous in strains derived from BY4741)); experiment: as above; remark: listed apart in the source

| binding [1] | binding [2] | binding [3] | binding [4] | binding [5] | binding [6] | Molecule |
| --- | --- | --- | --- | --- | --- | --- |
| binds | binds | binds |  |  |  | Xrn1 (from UniProt P22147 1-1528) (enzyme) |
| no binding |  |  | no binding | no binding | no binding | Nop53 (protein, UniProt Q12080 1-455) MAPTNLTKKPSQYKQSSRKGKKAWRKNIDLSDVEQYMEKKIDHEITHGTSDITSLQNDALFHVDVEGDEILKNKLIKRKQIKKVLKSKEILDAVKTNSKIAALNHHKNSSGNPNKIQGVSKHELKKLMALAGRVHGESKIKNRVAKDGLVKTTAGDLWGEESNSKKQKVKLPSGIKLDVEKKDQIPEELLKKSTTSWSTASVRPSTLDIEPIAVKEFTEIPHAGKSYNPNNKAWSELINKEYKEEKAREDERIALEKYKERIRHLMETLDDNEEEESSSNEEEEEEEEENENENESTQCSGSDKEIKLSINKPVKNKKKTKYQRNKAKRHEEKVKLQQELKELRQRVKDLEEVINSEETEILSAIESDSNKVKKSKKNKKHKLGTKYSVIDERLEIKFSDELSDSLRKLKPEGNLLYDTVRKLQSSGKVETRVPVRKGRKYKQKITEKWTHKDFK |
| binds |  |  | no binding |  |  | Nrd1 (protein, UniProt P53617 1-575) MQQDDDFQNFVATLESFKDLKSGISGSRIKKLTTYALDHIDIESKIISLIIDYSRLCPDSHKLGSLYIIDSIGRAYLDETRSNSNSSSNKPGTCAHAINTLGEVIQELLSDAIAKSNQDHKEKIRMLLDIWDRSGLFQKSYLNAIRSKCFAMDISNNTANTASQQLSLDPKQRSKQILSNLKKSPPLNLNISLPTDLTSTDPAKQQAALFQVIAALQKHFKTLPSHTSVGTVAPPQAHTITEYGSRRERERERERYNSRRNRSRSPPAPFSQPSTGRKDRYPSVAQDQYSIGAPNTTFGTNNHHLYPDELNVSNNPHYRPKPVSYDSTLPPDHIKVYSRTLFIGGVPLNMKEWDLANVLKPFAEVQSVILNNSRKHAFVKVYSRHEAENVLQNFNKDGALPLRTRWGVGFGPRDCCDYQHGYSIIPMHRLTDADKKWSVSAQWGGTSGQPLVTGIVFEEPDIIVGEGVSSKAISQKMPTDSGRNGPRSGKPNKSGSISSISPVPYGNAPLASPPPQQYVQPMMQQPYGYAPNQPLPSQGPAAAAPPVPQQQFDPTAQLNSLMNMLNQQQQQQQQS |
| no binding |  |  | no binding | no binding | no binding | Utp18 (protein, UniProt P40362 1-594) MTMATTAMNVSVPPPDEEEQLLAKFVFGDTTDLQENLAKFNADFIFNEQEMDVEDQEDEGSESDNSEEDEAQNGELDHVNNDQLFFVDDGGNEDSQDKNEDTMDVDDEDDSSSDDYSEDSEEAAWIDSDDEKIKVPILVTNKTKKLRTSYNESKINGVHYINRLRSQFEKIYPRPKWVDDESDSELDDEEDDEEEGSNNVINGDINALTKILSTTYNYKDTLSNSKLLPPKKLDIVRLKDANASHPSHSAIQSLSFHPSKPLLLTGGYDKTLRIYHIDGKTNHLVTSLHLVGSPIQTCTFYTSLSNQNQQNIFTAGRRRYMHSWDLSLENLTHSQTAKIEKFSRLYGHESTQRSFENFKVAHLQNSQTNSVHGIVLLQGNNGWINILHSTSGLWLMGCKIEGVITDFCIDYQPISRGKFRTILIAVNAYGEVWEFDLNKNGHVIRRWKDQGGVGITKIQVGGGTTTTCPALQISKIKQNRWLAVGSESGFVNLYDRNNAMTSSTPTPVAALDQLTTTISNLQFSPDGQILCMASRAVKDALRLVHLPSCSVFSNWPTSGTPLGKVTSVAFSPSGGLLAVGNEQGKVRLWKLNHY |
| binds |  |  | no binding |  |  | Nab3 (protein, UniProt P38996 1-802) MSDENHNSDVQDIPSPELSVDSNSNENELMNNSSADDGIEFDAPEEEREAEREEENEEQHELEDVNDEEEEDKEEKGEENGEVINTEEEEEEEHQQKGGNDDDDDDNEEEEEEEEDDDDDDDDDDDDEEEEEEEEEEGNDNSSVGSDSAAEDGEDEEDKKDKTKDKEVELRRETLEKEQKDVDEAIKKITREENDNTHFPTNMENVNYDLLQKQVKYIMDSNMLNLPQFQHLPQEEKMSAILAMLNSNSDTALSVPPHDSTISTTASASATSGARSNDQRKPPLSDAQRRMRFPRADLSKPITEEEHDRYAAYLHGENKITEMHNIPPKSRLFIGNLPLKNVSKEDLFRIFSPYGHIMQINIKNAFGFIQFDNPQSVRDAIECESQEMNFGKKLILEVSSSNARPQFDHGDHGTNSSSTFISSAKRPFQTESGDMYNDDNGAGYKKSRRHTVSCNIFVKRTADRTYAIEVFNRFRDGTGLETDMIFLKPRMELGKLINDAAYNGVWGVVLVNKTHNVDVQTFYKGSQGETKFDEYISISADDAVAIFNNIKNNRNNSRPTDYRAMSHQQNIYGAPPLPVPNGPAVGPPPQTNYYQGYSMPPPQQQQQQPYGNYGMPPPSHDQGYGSQPPIPMNQSYGRYQTSIPPPPPQQQIPQGYGRYQAGPPPQPPSQTPMDQQQLLSAIQNLPPNVVSNLLSMAQQQQQQPHAQQQLVGLIQSMQGQAPQQQQQQLGGYSSMNSSSPPPMSTNYNGQNISAKPSAPPMSHQPPPPQQQQQQQQQQQQQQQQPAGNNVQSLLDSLAKLQK |

Where two headings read alike, the source gives them in different places. No constants are given. Whether binding was seen depends on the method and setting. In cells and extracts the contact can be indirect. A yes stands for co-enrichment or nearness to the bait. Other partners may have been found. For part of these data: No binding means not detected with the bait.
